Measured values published in article PMC3547041.
These are yes or no findings as the source states them, for the method shown. In cells and extracts the contact can be indirect. Some results given as binding are weak or reduced against the parent protein; the word gives no strength.

Chains of the proteins cited; added tags and fusions are not shown.
UniProt P19812: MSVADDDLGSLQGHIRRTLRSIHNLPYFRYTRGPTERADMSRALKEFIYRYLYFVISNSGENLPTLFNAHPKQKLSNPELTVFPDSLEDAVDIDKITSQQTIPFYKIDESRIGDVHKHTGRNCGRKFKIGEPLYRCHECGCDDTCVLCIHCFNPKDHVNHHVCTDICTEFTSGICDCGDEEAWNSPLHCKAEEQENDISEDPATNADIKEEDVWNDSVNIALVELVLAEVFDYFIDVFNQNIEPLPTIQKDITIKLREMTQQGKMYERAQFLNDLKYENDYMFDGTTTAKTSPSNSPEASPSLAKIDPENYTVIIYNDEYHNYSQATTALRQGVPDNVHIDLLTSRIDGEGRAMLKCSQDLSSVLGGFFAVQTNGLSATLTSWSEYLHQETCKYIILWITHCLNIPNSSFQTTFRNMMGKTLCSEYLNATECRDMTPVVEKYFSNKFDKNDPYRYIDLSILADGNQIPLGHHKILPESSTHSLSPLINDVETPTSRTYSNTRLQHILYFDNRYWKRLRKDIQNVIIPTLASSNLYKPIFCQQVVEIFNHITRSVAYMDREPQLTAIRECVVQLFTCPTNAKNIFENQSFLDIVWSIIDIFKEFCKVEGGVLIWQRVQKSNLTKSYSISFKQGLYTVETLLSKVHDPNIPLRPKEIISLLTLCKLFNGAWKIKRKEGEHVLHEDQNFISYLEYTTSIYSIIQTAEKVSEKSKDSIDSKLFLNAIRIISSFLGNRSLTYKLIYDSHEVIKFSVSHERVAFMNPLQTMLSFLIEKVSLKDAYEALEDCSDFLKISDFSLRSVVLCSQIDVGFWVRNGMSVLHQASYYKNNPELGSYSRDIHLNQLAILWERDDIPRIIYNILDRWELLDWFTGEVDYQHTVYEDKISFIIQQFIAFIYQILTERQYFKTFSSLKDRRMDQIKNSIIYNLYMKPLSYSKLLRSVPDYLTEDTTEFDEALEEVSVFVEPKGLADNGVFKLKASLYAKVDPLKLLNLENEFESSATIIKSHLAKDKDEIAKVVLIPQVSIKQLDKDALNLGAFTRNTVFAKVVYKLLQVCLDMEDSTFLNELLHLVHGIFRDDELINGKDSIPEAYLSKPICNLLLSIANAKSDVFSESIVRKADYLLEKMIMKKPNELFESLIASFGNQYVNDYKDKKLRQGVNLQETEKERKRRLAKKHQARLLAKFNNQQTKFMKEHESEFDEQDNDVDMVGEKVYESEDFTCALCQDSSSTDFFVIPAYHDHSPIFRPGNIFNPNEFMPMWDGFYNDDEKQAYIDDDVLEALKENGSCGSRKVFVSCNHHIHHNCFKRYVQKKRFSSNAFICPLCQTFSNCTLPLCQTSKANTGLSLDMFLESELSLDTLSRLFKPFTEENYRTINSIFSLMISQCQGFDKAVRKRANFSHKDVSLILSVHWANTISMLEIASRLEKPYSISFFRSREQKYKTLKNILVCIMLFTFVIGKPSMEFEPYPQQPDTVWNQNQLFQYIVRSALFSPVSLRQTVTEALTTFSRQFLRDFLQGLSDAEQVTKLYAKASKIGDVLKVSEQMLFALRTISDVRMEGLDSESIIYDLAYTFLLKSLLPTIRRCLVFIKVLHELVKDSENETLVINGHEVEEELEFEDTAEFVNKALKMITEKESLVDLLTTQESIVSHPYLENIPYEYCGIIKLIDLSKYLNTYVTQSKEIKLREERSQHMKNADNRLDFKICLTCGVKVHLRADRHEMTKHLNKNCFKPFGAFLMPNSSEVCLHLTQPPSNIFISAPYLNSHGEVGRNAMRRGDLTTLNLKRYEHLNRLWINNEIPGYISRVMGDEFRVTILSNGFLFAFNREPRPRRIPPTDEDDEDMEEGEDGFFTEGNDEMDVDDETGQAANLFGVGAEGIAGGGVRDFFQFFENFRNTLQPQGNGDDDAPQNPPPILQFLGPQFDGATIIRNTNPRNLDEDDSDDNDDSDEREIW
UniProt P10591: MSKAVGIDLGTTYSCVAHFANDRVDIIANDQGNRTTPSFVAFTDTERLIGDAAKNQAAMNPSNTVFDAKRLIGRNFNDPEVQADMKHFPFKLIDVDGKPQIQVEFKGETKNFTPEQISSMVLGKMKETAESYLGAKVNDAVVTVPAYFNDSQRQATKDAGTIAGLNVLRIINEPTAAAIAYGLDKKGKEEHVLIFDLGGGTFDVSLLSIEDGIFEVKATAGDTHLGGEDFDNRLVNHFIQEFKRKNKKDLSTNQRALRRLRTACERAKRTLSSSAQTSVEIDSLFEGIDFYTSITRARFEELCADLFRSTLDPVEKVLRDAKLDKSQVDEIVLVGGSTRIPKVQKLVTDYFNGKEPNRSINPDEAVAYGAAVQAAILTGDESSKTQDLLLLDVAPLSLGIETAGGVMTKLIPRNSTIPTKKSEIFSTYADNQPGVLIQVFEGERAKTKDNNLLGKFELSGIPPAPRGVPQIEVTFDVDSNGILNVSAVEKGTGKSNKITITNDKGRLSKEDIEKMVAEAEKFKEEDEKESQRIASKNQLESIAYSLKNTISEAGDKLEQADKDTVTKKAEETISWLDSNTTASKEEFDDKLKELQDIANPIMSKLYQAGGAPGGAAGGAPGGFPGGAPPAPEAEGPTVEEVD

B1: Type II Hsp40 Sis1 (protein, UniProt P25294 1-352)
chain: MVKETKLYDLLGVSPSANEQELKKGYRKAALKYHPDKPTGDTEKFKEISEAFEILNDPQKREIYDQYGLEAARSGGPSFGPGGPGGAGGAGGFPGGAGGFSGGHAFSNEDAFNIFSQFFGGSSPFGGADDSGFSFSSYPSGGGAGMGGMPGGMGGMHGGMGGMPGGFRSASSSPTYPEEETVQVNLPVSLEDLFVGKKKSFKIGRKGPHGASEKTQIDIQLKPGWKAGTKITYKNQGDYNPQTGRRKTLQFVIQEKSHPNFKRDGDDLIYTLPLSFKESLLGFSKTIQTIDGRTLPLSRVQPVQPSQTSTYPGQGMPTPKNPSQRGNLIVKYKVDYPISLNDAQKRAIDENF

Target: Flag-Ubr1 (S. cerevisiae) (UniProt P19812)
Experiment: co-IP; Flag-Ubr1 isolated from yeast cell extracts under native conditions via FLAG affinity resin, bound material eluted with FLAG peptide, immunoblotting

Row | Molecule | binding
1 | Hsp70 Ssa1 (from UniProt P10591 1-642) | binds
2 | B1 | binds
